{"source": "patent US20040014024A1", "about": "“Screening assay for antagonists of FGFR-mediated malignant cell transformation and tumor formation” (priority 1999, published 2004)", "system": "RCJ cells", "assay": "Tumor formation in nude mice injected with RCJ cells, doxycycline in drinking water", "assay_type": "in vivo", "conditions": "doxycycline 25 μg/ml in drinking water, up to 60 days", "description": "6-8-Week old nude mice (BalbC/Nu) were injected subcutaneously with equivalent number of parental RCJ or L8 cells or FGFR3 expressing cell lines and were followed for tumor formation for up to 60 days after injections. Inhibition of FGFR expression in vivo was done by adding 25 μg/ml doxycycline into the drinking water of mice which had previously received the RCJ cell clones by injection. Nude mice were injected subcutaneously with equivalent numbers of parental RCJ cells (FIGS. 9 A-C, C2, squares) or wild type or mutant FGFR3 expressing RCJ cell lines (W11, circles in FIG. 9A, M15, triangles in FIG. 9A, W2, triangles in FIG. 9B, M16, circles in FIG. 9B) and tumor surface areas were evaluated for up to 60 days after injection (ordinates). […] Triangles, C2 (control) clone plus doxycycline, circles, W11 clone, filled squares, W11 clone plus doxycycline Doxycycline was used in animals because the former is a potent high affinity derivative of tetracycline. […] The inhibition of tumor formation of RCJ cells was highly correlated with the expression levels of FGFR3. In order to determine whether inhibition of tumor formation reflects the expression level of FGFR3, we have performed an assay where we tried to suppress the expression of FGFR3 in vivo by the addition of doxycycline to the drinking water of injected mice.", "note": "At least one structure is not confirmed: it was looked up by name or label, or the drawing left a doubt.", "data": [{"molecule": "C[C@H]1c2cccc(O)c2C(=O)C2=C(O)[C@]3(O)C(=O)C(C(N)=O)=C(O)[C@@H](N(C)C)[C@@H]3[C@@H](O)[C@@H]21", "note": "[doxycycline]", "values": [{"measurement": "effect on tumor formation, mice injected with wild type FGFR3 expressing RCJ cells (W11)", "value": "gave rise to relatively large tumors"}]}]}
